According to paper PMC12040169 (PLOS Biology, 2025):
This is one part of the list.

Test system: T1, CTL2-GFP (C. trachomatis L2/434/Bu, GFP-expressing)
T1 construct: L2/434/Bu, GFP-expressing
Parameters: species or system HeLa; Intracellular C. trachomatis growth in HeLa cells, bulk GFP fluorescence relative to DMSO
Details: bulk GFP, single well; 28.5 h, 10 µM; inhibitor

| Structure (SMILES) | % of control remaining [%] |
| --- | --- |
| O=C(CN1C(=O)[C@H]2CCCN2c2ncccc21)NCCc1c[nH]c2ccccc12 [CBK286206] | 86.0462 |
| COc1ccc2c(c1OC)C(=O)N1C2SC(C)(C)C1C(=O)O (stereo not shown) [CBK011479] | 122.857 |
| CCOc1ccc(-c2nc(-c3cccc(NC(=O)c4ccccc4C(=O)O)c3)no2)cc1 [CBK299832] | 119.458 |
| CSCCC(NC(=O)c1c(C)oc2c1CCCC2)C(=O)O (stereo not shown) [CBK264029] | 100 |
| CC(C)(C)NCC(O)COc1ccc(Cl)cc1Cl (stereo not shown) [CBK025597C] | 96.1665 |
| CN1CCCC1CNCc1cn(-c2ccccc2)nc1-c1cccnc1 (stereo not shown) [CBK304490] | 67.371 |
| Cc1csc(NC(=O)CN2CCC(c3ccccc3F)CC2)n1 [CBK283569] | 72.234 |
| Nc1ncc(-c2ccc(C(=O)N3CCOCC3)cc2)nc1-c1ccc(CCC(=O)O)cc1 [CBK126368] | 95.5747 |
| COc1ccc(S(=O)(=O)NC(C)C(=O)NCc2ccncc2)cc1C (stereo not shown) [CBK269347] | 82.5626 |
| Cn1cnc(S(=O)(=O)N2CCC(C(=O)NC(c3ccccn3)c3cccs3)CC2)c1 (stereo not shown) [CBK060131] | 93.7563 |
| O=C1Nc2cc(Cl)ccc2C(=O)N2CC[C@H](NS(=O)(=O)c3cccs3)[C@@H]12 [CBK289341] | 105.042 |
| COc1ccc(C(=O)Nc2ccc(S(=O)(=O)N3CCN(C)CC3)cc2)cc1 [CBK267622] | 121.978 |
| COc1ccc(/C=C(/C#N)C(=O)Nc2cccc(C)c2C)cc1C(=O)O [CBK262751] | 121.658 |
| Cc1c(C(=O)N2CCCCC2)sc2nc(C(F)(F)F)nn12 [CBK006455] | 98.1861 |
| O=C(CCC(=O)c1ccccc1)NC1CCc2ccccc21 (stereo not shown) [CBK003351] | 145.785 |
| Cc1nnc(CN2CCOc3ccc(Br)cc3C2)o1 [CBK304079] | 133.032 |
| Cc1c(S(=O)(=O)NCCN(C)C)sc2ccc(C(C)C)cc12 [CBK170357] | 97.1984 |
| O=C(Nc1ccc2oc(-c3cccnc3)nc2c1)c1ccc(-c2cccc([N+](=O)[O-])c2)o1 [CBK262945] | 92.7403 |
| Cc1cn(S(=O)(=O)N(C)C)nc1-c1ccccc1 [CBK005210] | 156.817 |
| CC(CN1CCOCC1)OC(=O)c1ccco1 (stereo not shown) [CBK264606C] | 117.253 |
| Cc1cc(C(=O)O)c2[nH]c3c(c2c1)CCCC3 [CBK028885] | 116.883 |
| O=C(O)c1ccc(CN2CCOC[C@H]2c2nc(-c3ccc(F)cc3)c[nH]2)cc1 [CBK289304] | 138.505 |

Look-ups from the list:
Cc1csc(NC(=O)CN2CCC(c3ccccc3F)CC2)n1 [CBK283569] | % of control remaining [%]: 72.234
Cc1c(S(=O)(=O)NCCN(C)C)sc2ccc(C(C)C)cc12 [CBK170357] | % of control remaining [%]: 97.1984
